PubChem BioAssay AID192 (DTP/NCI, 2004)
The list is a part of this screen's results and no random one: it gathers tests that were run many times, whatever their T/C, doses with no T/C, and many T/C values between a quarter and a half above the control. Other doses and runs of a compound stand elsewhere. T/C is the treated group as % of the vehicle group. Some entries give survivors of the animals treated and no T/C: the source files T/C as zero there, which appears to mark a toxic dose or a test without result, not a measured value. Some doses without a T/C left all or most animals alive at the check, yet need not have been tolerated: survival well below the control is almost never listed, so the zero probably covers shortened survival too. Survivors were counted at the toxicity check, usually on the fifth day, unless a day is given; later deaths do not show. Schedule codes are those of the source, read here as Q, the interval in days (D) or hours (H), X, the number of doses. Some entries hold several experiments; the values are given in rising order. Signs of the kind (2×) count equal records among those shown. Where survival is the endpoint, the PubChem record calls one and a half times the control and up active, and a quarter to a half above the control has no call in these data; cut-offs in other NCI protocols can differ. Some T/C values are followed by the survivors on the day toxicity was checked, most often the fifth; without a count, all were alive then.

System: BDF1 mice, B16 melanoma ip, median survival T/C
Assay: NCI In Vivo Anticancer Drug Screen. Data for tumor model B16 Melanoma (intraperitoneal) in B6D2F1 (BDF1) mice
Conditions: T/C endpoint: median survival time, higher T/C = longer survival
Procedure, shortened: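 Mice with transplantable tumors; drug vs vehicle groups; endpoint survival or tumor size; value = T/C.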

[1] = dose: 12.5 mg/kg/injection, schedule: Q01DX001 (ip), vehicle: Klucel (hydroxypropylcellulose) (HPC)
[2] = dose: 32.0 mg/kg/injection, schedule: Q01DX009 (ip), vehicle: Klucel (hydroxypropylcellulose) (HPC)
[3] = dose: 32.0 mg/kg/injection, schedule: Q01DX009 (ip), vehicle: saline
[4] = dose: 50.0 mg/kg/injection, schedule: Q01DX001 (ip), vehicle: Klucel (hydroxypropylcellulose) (HPC)
[5] = dose: 100.0 mg/kg/injection, schedule: Q01DX001 (ip), vehicle: Klucel (hydroxypropylcellulose) (HPC)

## O=NN(CCCl)C(=O)NC1CCCCC1
dose: 1.0 mg/kg/injection, schedule: Q01DX009 (ip), vehicle: Klucel (hydroxypropylcellulose) (HPC)
  T/C: 94, 95 (2×), 96, 99, 102 [9 of 10 alive], 107, 111, 112 % of control
dose: 2.0 mg/kg/injection, schedule: Q01DX009 (ip), vehicle: Klucel (hydroxypropylcellulose) (HPC), evaluated on day 45
  T/C: 103 % of control
dose: 2.0 mg/kg/injection, schedule: Q01DX009 (ip), vehicle: Klucel (hydroxypropylcellulose) (HPC), evaluated on day 60
  T/C: 92, 102, 104, 107, 108, 109, 110 (2×), 113, 120 % of control
dose: 4.0 mg/kg/injection, schedule: Q01DX009 (ip), vehicle: Klucel (hydroxypropylcellulose) (HPC), evaluated on day 45
  T/C: 140 % of control
dose: 4.0 mg/kg/injection, schedule: Q01DX009 (ip), vehicle: Klucel (hydroxypropylcellulose) (HPC), evaluated on day 60
  T/C: 104, 105 (2×), 107, 110, 111 (3×), 112, 114, 117 [5 of 6 alive], 119, 122, 126, 129, 130, 132 [5 of 6 alive], 133, 135, 140, 141, 144, 149, 156, 167 % of control
dose: 4.0 mg/kg/injection, schedule: Q01DX009 (ip), vehicle: saline with Tween-80, evaluated on day 45
  T/C: 95, 108, 118 % of control
dose: 4.0 mg/kg/injection, schedule: Q01DX009 (ip), vehicle: saline with Tween-80, evaluated on day 60
  T/C: 94, 96, 105 % of control
dose: 4.0 mg/kg/injection, schedule: Q01DX009 (ip), vehicle: saline
  T/C: 102, 102 [5 of 6 alive], 106 (2×), 115, 131 % of control
dose: 8.0 mg/kg/injection, schedule: Q01DX001 (ip), vehicle: Klucel (hydroxypropylcellulose) (HPC)
  T/C: 143 % of control
dose: 8.0 mg/kg/injection, schedule: Q01DX009 (ip), vehicle: Klucel (hydroxypropylcellulose) (HPC), evaluated on day 45
  T/C: 174 % of control
dose: 8.0 mg/kg/injection, schedule: Q01DX009 (ip), vehicle: Klucel (hydroxypropylcellulose) (HPC), evaluated on day 60
  T/C: 88, 100, 117, 119, 120 (2×), 125, 137 (2×), 139 (2×), 142 [9 of 10 alive], 150, 157, 170, 175, 182, 185, 190, 194, 202, 207 [9 of 10 alive], 209, 225, 259 % of control
dose: 8.0 mg/kg/injection, schedule: Q01DX009 (ip), vehicle: saline with Tween-80, evaluated on day 45
  T/C: 118, 127, 137 % of control
dose: 8.0 mg/kg/injection, schedule: Q01DX009 (ip), vehicle: saline with Tween-80, evaluated on day 60
  T/C: 105, 111, 117, 160 % of control
dose: 8.0 mg/kg/injection, schedule: Q01DX009 (ip), vehicle: saline
  T/C: 113, 123 (2×), 126, 145, 157 % of control
dose: 12.0 mg/kg/injection, schedule: Q01DX001 (ip), vehicle: Klucel (hydroxypropylcellulose) (HPC)
  T/C: 104, 111, 112, 126, 132, 157, 161, 191 % of control
[1]
  T/C: 104, 105 [5 of 6 alive], 115, 117, 120, 127 % of control
  survivor count: 5 of 6
dose: 12.5 mg/kg/injection, schedule: Q01DX001 (ip), vehicle: saline with Tween-80, evaluated on day 45
  T/C: 100, 105, 117, 120 % of control
dose: 12.5 mg/kg/injection, schedule: Q01DX001 (ip), vehicle: saline with Tween-80, evaluated on day 60
  T/C: 96, 108, 111 % of control
dose: 12.5 mg/kg/injection, schedule: Q01DX001 (ip), vehicle: saline
  T/C: 97, 100, 106, 119 % of control
dose: 15.0 mg/kg/injection, schedule: Q01DX001 (ip), vehicle: other
  T/C: 129 % of control
dose: 16.0 mg/kg/injection, schedule: Q01DX009 (ip), vehicle: Klucel (hydroxypropylcellulose) (HPC), evaluated on day 45
  T/C: 141 % of control
dose: 16.0 mg/kg/injection, schedule: Q01DX009 (ip), vehicle: Klucel (hydroxypropylcellulose) (HPC), evaluated on day 60
  T/C: 89, 90, 105, 108, 120, 152, 178, 180, 182, 188 (3×), 194, 195, 197, 200 (2×), 205, 213, 222, 250 [5 of 6 alive], 257, 290 % of control
dose: 16.0 mg/kg/injection, schedule: Q01DX009 (ip), vehicle: Klucel (hydroxypropylcellulose) (HPC)
  survivor count: 9 of 10 and 6 of 6
dose: 16.0 mg/kg/injection, schedule: Q01DX009 (ip), vehicle: saline with Tween-80, evaluated on day 45
  T/C: 162, 191, 218 % of control
dose: 16.0 mg/kg/injection, schedule: Q01DX009 (ip), vehicle: saline with Tween-80, evaluated on day 60
  T/C: 158, 171, 233, 307 % of control
dose: 16.0 mg/kg/injection, schedule: Q01DX009 (ip), vehicle: saline
  T/C: 91, 152, 185, 189, 200, 285 % of control
dose: 25.0 mg/kg/injection, schedule: Q01DX001 (ip), vehicle: Klucel (hydroxypropylcellulose) (HPC)
  T/C: 110, 112, 116, 117, 122, 128, 136, 150, 154, 155, 160, 173, 175, 214, 333 % of control
dose: 25.0 mg/kg/injection, schedule: Q01DX001 (ip), vehicle: saline with Tween-80, evaluated on day 45
  T/C: 112 (2×), 115, 119 % of control
dose: 25.0 mg/kg/injection, schedule: Q01DX001 (ip), vehicle: saline with Tween-80, evaluated on day 60
  T/C: 101, 108, 136 % of control
dose: 25.0 mg/kg/injection, schedule: Q01DX001 (ip), vehicle: saline
  T/C: 102, 103, 110, 115, 145 % of control
[2]
  T/C: 92, 94 [4 of 6 alive], 107, 111, 114, 115, 126 [5 of 6 alive], 146, 188 % of control
  survivor count: 5 of 6, 10 of 10 (3×), 6 of 6
dose: 32.0 mg/kg/injection, schedule: Q01DX009 (ip), vehicle: saline with Tween-80, evaluated on day 45
  T/C: 110 and 124 % of control
dose: 32.0 mg/kg/injection, schedule: Q01DX009 (ip), vehicle: saline with Tween-80, evaluated on day 60
  T/C: 128 % of control
dose: 32.0 mg/kg/injection, schedule: Q01DX009 (ip), vehicle: saline with Tween-80
  survivor count: 5 of 6 (2×) and 6 of 6
[3]
  T/C: 135, 139, 142, 144, 147 % of control
  survivor count: 6 of 6
[4]
  T/C: 92 [5 of 6 alive], 100, 107, 110 [5 of 6 alive], 125, 141, 150, 172, 187, 188, 207, 214, 255, 333 % of control
  survivor count: 6 of 6
dose: 50.0 mg/kg/injection, schedule: Q01DX001 (ip), vehicle: saline with Tween-80, evaluated on day 45
  T/C: 100 (2×), 122, 150 % of control
dose: 50.0 mg/kg/injection, schedule: Q01DX001 (ip), vehicle: saline with Tween-80, evaluated on day 60
  T/C: 100, 116, 207 % of control
dose: 50.0 mg/kg/injection, schedule: Q01DX001 (ip), vehicle: saline
  T/C: 112, 113, 121 (2×), 184 % of control
dose: 60.0 mg/kg/injection, schedule: Q01DX001 (ip), vehicle: other
  T/C: 134 % of control [9 of 10 alive on day 6]
dose: 64.0 mg/kg/injection, schedule: Q01DX009 (ip), vehicle: Klucel (hydroxypropylcellulose) (HPC)
  survivor count: 9 of 10
dose: 64.0 mg/kg/injection, schedule: Q01DX009 (ip), vehicle: saline with Tween-80
  survivor count: 10 of 10
[5]
  T/C: 86, 88, 94, 95, 122 [5 of 6 alive], 135, 153, 155, 176 % of control
  survivor count: 4 of 6, 5 of 6, 6 of 6
dose: 100.0 mg/kg/injection, schedule: Q01DX001 (ip), vehicle: saline with Tween-80, evaluated on day 45
  T/C: 95 and 140 % of control [5 of 6 alive]
dose: 100.0 mg/kg/injection, schedule: Q01DX001 (ip), vehicle: saline with Tween-80, evaluated on day 60
  T/C: 230 % of control
dose: 100.0 mg/kg/injection, schedule: Q01DX001 (ip), vehicle: saline with Tween-80
  survivor count: 5 of 6 and 6 of 6 (2×)
dose: 100.0 mg/kg/injection, schedule: Q01DX001 (ip), vehicle: saline
  T/C: 96, 124, 128, 134, 184 % of control
dose: 120.0 mg/kg/injection, schedule: Q01DX001 (ip), vehicle: other
  survivor count: 7 of 10 on day 6
dose: 128.0 mg/kg/injection, schedule: Q01DX009 (ip), vehicle: Klucel (hydroxypropylcellulose) (HPC)
  survivor count: 3 of 10

## O=Nc1c(N=O)c(N=O)c(N=O)c(N=O)c1N=O
dose: 10.0 mg/kg/injection, schedule: Q01DX009 (ip), vehicle: saline with Tween-80
  survivor count: 5 of 6
dose: 20.0 mg/kg/injection, schedule: Q01DX009 (ip), vehicle: saline with Tween-80
  survivor count: 3 of 6
dose: 40.0 mg/kg/injection, schedule: Q01DX009 (ip), vehicle: saline with Tween-80
  survivor count: 0 of 6
dose: 80.0 mg/kg/injection, schedule: Q01DX009 (ip), vehicle: saline with Tween-80
  survivor count: 0 of 6

## CC(CNCCN)C[Si](C)(C)C (centres undefined)
dose: 50.0 mg/kg/injection, schedule: Q01DX009 (ip), vehicle: suspension in saline
  survivor count: 10 of 10
